Test results from the supplement of paper PMC10849652.
The other results are listed elsewhere or left out.

Protein sequences, listed by entry. Tags and fused reporters are not part of them. Lines headed by an entry give the natural chain unless they say otherwise; changes in a name come on top.
UniProt Q9NRM2: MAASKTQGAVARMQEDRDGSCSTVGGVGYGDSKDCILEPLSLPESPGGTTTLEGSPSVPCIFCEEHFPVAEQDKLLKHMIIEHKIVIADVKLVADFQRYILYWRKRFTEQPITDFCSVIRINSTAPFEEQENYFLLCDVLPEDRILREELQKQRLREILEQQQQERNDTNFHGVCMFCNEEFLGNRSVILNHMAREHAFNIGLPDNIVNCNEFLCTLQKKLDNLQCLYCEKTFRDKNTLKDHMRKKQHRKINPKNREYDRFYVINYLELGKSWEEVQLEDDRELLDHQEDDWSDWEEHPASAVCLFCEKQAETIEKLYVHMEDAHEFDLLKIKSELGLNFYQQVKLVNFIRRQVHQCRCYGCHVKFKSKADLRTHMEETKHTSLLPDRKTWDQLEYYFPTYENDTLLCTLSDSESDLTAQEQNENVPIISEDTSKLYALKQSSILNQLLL
UniProt A6NFI3: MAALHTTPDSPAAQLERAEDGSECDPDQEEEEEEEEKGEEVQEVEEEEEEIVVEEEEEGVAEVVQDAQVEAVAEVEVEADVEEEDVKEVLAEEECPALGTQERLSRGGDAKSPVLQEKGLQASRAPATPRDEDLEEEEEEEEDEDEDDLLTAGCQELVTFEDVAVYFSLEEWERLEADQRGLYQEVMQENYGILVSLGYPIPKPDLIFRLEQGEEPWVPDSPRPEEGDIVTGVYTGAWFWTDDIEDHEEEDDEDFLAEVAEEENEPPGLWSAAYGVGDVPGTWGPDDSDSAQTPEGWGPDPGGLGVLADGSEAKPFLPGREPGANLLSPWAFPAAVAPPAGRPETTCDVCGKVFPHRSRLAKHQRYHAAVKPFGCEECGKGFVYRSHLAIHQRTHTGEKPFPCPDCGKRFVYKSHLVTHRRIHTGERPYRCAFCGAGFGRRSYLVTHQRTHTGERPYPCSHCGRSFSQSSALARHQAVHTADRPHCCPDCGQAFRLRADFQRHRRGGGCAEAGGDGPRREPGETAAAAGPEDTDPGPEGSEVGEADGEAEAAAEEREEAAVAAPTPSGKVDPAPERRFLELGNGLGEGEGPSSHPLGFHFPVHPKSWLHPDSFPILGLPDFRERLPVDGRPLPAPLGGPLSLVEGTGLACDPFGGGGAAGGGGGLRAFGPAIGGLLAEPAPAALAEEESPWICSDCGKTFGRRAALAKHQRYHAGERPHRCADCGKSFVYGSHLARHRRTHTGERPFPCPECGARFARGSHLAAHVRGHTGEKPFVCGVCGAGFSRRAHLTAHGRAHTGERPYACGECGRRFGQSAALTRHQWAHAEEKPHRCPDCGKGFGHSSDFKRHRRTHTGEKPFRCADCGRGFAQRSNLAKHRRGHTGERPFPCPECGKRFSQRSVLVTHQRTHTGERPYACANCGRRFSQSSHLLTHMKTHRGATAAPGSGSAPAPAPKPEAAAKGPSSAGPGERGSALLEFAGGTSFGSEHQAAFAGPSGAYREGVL
UniProt Q9Y3S2: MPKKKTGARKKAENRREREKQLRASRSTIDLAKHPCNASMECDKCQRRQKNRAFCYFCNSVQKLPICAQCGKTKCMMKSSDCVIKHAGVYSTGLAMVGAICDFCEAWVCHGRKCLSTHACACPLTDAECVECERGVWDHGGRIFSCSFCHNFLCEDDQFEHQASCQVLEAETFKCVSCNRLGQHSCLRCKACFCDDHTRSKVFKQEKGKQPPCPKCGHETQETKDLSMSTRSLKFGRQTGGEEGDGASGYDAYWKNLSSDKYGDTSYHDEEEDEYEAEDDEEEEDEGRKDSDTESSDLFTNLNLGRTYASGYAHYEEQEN
UniProt Q9UL40: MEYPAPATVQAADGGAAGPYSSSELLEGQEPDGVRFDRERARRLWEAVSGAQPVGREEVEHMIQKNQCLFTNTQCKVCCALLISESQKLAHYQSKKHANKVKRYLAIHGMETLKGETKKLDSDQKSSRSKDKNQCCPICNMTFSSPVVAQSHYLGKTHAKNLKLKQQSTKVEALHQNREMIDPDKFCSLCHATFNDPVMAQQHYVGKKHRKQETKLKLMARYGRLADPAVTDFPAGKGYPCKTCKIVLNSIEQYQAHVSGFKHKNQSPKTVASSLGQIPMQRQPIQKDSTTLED
UniProt Q8TF68: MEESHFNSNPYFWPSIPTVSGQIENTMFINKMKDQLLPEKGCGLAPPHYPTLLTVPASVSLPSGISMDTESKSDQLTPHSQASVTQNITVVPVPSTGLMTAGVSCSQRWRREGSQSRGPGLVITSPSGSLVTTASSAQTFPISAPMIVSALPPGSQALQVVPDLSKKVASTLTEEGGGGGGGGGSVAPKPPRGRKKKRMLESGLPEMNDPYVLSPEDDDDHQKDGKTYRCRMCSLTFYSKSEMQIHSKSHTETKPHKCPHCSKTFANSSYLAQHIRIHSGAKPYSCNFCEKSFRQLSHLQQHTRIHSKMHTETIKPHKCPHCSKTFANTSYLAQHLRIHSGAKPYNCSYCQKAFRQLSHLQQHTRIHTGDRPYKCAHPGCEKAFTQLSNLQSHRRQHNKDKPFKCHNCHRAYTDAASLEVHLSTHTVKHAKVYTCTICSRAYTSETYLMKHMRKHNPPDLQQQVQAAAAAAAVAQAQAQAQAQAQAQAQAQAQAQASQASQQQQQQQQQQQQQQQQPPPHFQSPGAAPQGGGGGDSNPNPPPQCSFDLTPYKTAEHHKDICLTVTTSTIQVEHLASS
UniProt Q96IQ9: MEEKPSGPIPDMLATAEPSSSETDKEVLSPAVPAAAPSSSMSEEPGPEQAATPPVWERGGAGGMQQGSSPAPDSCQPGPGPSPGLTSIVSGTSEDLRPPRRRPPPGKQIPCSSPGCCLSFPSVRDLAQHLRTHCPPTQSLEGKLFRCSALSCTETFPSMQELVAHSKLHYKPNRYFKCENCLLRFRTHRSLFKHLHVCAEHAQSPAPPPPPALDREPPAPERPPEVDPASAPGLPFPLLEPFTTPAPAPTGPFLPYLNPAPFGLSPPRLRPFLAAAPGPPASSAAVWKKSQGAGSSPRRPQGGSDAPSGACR
UniProt Q96PM9: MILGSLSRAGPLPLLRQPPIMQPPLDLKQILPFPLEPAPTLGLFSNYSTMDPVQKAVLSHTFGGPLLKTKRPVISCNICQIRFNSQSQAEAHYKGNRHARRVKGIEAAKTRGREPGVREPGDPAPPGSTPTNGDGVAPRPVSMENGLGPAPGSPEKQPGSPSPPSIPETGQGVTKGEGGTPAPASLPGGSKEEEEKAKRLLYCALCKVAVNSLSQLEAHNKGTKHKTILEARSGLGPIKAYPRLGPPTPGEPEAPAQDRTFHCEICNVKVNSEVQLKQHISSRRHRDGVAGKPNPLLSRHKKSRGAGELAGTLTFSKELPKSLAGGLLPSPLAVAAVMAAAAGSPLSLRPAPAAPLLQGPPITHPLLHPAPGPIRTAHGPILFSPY
UniProt Q5VUA4: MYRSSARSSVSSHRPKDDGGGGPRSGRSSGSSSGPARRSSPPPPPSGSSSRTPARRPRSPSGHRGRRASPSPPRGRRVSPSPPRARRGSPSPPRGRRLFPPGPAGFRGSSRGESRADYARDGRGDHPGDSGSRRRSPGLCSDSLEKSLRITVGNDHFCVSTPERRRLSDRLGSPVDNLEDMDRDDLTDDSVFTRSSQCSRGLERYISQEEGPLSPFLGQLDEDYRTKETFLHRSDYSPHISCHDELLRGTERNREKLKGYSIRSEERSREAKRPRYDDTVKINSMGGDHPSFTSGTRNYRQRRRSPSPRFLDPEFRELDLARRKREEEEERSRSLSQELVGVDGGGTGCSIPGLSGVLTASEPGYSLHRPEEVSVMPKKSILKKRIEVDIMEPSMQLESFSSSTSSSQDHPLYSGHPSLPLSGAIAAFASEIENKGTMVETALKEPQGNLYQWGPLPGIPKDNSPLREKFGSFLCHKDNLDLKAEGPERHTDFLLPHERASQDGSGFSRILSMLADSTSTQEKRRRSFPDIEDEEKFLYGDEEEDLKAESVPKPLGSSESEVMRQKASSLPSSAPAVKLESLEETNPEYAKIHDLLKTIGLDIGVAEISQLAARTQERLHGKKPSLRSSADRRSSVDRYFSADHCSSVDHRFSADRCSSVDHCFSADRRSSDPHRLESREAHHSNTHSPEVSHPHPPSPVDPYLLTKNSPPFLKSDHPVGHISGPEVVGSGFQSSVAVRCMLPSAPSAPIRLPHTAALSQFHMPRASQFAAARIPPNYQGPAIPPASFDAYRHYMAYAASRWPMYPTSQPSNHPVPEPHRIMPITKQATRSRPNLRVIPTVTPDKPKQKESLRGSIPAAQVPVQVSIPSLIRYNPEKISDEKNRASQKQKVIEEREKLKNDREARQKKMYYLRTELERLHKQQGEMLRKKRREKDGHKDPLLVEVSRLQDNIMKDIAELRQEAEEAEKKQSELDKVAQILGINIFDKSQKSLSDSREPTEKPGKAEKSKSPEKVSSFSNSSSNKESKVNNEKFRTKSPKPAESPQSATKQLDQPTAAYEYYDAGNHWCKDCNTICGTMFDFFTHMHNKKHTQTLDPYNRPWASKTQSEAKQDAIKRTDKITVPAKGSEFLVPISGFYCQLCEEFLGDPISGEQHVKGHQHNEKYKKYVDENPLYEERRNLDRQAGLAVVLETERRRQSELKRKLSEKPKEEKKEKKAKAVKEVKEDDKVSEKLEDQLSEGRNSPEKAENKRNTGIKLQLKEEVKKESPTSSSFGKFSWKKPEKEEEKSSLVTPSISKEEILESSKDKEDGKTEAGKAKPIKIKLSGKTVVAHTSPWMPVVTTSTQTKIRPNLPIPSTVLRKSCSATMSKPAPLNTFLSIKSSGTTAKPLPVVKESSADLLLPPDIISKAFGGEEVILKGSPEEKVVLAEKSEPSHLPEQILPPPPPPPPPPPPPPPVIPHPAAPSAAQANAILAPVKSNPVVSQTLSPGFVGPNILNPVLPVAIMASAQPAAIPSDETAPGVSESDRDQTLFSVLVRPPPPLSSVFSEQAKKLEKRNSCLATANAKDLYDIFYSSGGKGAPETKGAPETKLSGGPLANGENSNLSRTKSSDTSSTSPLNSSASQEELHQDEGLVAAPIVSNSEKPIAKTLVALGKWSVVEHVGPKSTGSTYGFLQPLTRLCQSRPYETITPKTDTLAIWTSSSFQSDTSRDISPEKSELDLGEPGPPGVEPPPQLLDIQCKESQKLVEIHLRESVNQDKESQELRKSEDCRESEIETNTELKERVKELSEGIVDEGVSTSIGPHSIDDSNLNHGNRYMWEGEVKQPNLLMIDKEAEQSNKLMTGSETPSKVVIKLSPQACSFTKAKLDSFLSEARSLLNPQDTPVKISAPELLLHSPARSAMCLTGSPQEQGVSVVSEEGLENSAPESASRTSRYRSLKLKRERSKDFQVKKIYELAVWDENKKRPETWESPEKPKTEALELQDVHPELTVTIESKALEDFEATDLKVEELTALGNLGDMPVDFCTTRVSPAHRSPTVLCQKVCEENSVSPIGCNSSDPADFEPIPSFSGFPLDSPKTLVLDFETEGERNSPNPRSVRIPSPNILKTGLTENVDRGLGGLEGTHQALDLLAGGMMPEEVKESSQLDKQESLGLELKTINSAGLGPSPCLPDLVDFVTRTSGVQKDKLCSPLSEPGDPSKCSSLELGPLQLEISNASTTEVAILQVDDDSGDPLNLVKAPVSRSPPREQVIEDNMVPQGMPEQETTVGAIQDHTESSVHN

Key:
Test in all cases: log2 fold change, soluble protein after heating vs DMSO (PISA); higher = thermal stabilisation; K562 cells, 10 uM, 30 min; active = over 0.2 and 3.5 SD of the protein, either way, in both replicates (recomputed)
[1] = molecular target: ZNF277 (UniProt Q9NRM2)
Procedure, shortened: (§1)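 K562 cells at 2×10^6 cells/mL were treated with 10 μM compound for 30 min. Aliquots were heated for 3 min across 48°C-58°C, pooled, and extracted in PBS with 0.5% NP-40 at 4°C; soluble protein was the supernatant after 21,000xg for 90 min. Soluble protein was quantified by TMTpro 16plex LC-MS/MS with channel sums equalised, and reported as log2 fold change in thermal stability against DMSO controls, with values from duplicates.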

[2] = molecular target: ZNF316 (UniProt A6NFI3)
Procedure, shortened: as §1

[3] = molecular target: ZNF330 (UniProt Q9Y3S2)
Procedure, shortened: as §1

[4] = molecular target: ZNF346 (UniProt Q9UL40)
Procedure, shortened: as §1

[5] = molecular target: ZNF384 (UniProt Q8TF68)
Procedure, shortened: as §1

[6] = molecular target: ZNF414 isoform 2 (UniProt Q96IQ9)
Procedure, shortened: as §1

[7] = molecular target: ZNF385A (UniProt Q96PM9)
Procedure, shortened: as §1

[8] = molecular target: ZNF318 (UniProt Q5VUA4)
Procedure, shortened: as §1

Measured: log2 fold change

Cc1ccc(-n2nc(C(C)(C)C)cc2NC(=O)Nc2ccc(OCCN3CCOCC3)c3ccccc23)cc1 [doramapimod]
inactive: [1] 0.123 | [2] 0.132 | [3] -0.089 | [4] 0.024 | [5] 0.096 | [6] 0.009

CCN(CC)Cc1ccc2cc(COC(=O)Nc3ccc(C(=O)NO)cc3)ccc2c1 [givinostat]
inactive: [1] 0.199 | [3] -0.119 | [4] 0.007 | [5] -0.082 | [7] 0.022

Cc1ccc2c(=O)c3ccccc3n(CCCN)c2c1C
inactive: [1] -0.126 | [3] -0.112 | [4] 0.091 | [5] -0.058 | [7] -0.192

CN1CCN(CCOc2cc(OC3CCOCC3)c3c(Nc4c(Cl)ccc5c4OCO5)ncnc3c2)CC1 [saracatinib]
inactive: [1] -0.276 | [8] 0.003 | [3] -0.006 | [4] -0.027 | [7] -0.052

C=CC(=O)N1CCC[C@@H](n2nc(-c3ccc(Oc4ccccc4)cc3)c3c(N)ncnc32)C1 [ibrutinib]
inactive: [1] -0.028 | [2] -0.052 | [3] 0.006 | [4] 0.033 | [5] -0.043 | [7] 0.19 | [6] -0.167

Cc1cccc(CC(=O)N2CCc3c2ccc(-c2cn(C)c4ncnc(N)c24)c3F)n1
inactive: [1] 0.045 | [3] 0.014 | [4] -0.143 | [5] -0.019 | [7] -0.11

COc1cccc2cc(-c3nc([C@H]4CC[C@H](C(=O)O)CC4)n4ncnc(N)c34)[nH]c12
inactive: [1] -0.24 | [2] -0.041 | [3] -0.08 | [4] -0.034 | [5] 0.046 | [7] -0.133 | [6] 0.412

CCN(CCCOc1ccc2c(Nc3cc(CC(=O)Nc4cccc(F)c4)[nH]n3)ncnc2c1)CCOP(=O)(O)O [barasertib]
inactive: [1] 0.026 | [2] 0.066 | [3] -0.001 | [4] 0.016 | [5] 0.183 | [7] -0.04 | [6] 0.113

CNc1nc(-c2ccc3c(N)n[nH]c3c2)cc(N2C[C@@H](C(=O)NC3CCCCC3)CC[C@H]2C)n1
inactive: [1] 0.11 | [8] -0.133 | [3] -0.034 | [4] -0.089 | [7] 0.009

NC(=O)c1ccc2nc(-c3ccc(Oc4ccc(Cl)cc4)cc3)[nH]c2c1
inactive: [1] -0.104 | [3] 0.066 | [4] -0.083 | [5] 0.041 | [7] 0

Pulled one by one from the entries so far, two records:
CNc1nc(-c2ccc3c(N)n[nH]c3c2)cc(N2C[C@@H](C(=O)NC3CCCCC3)CC[C@H]2C)n1
inactive: [1] 0.11 | [8] -0.133 | [3] -0.034 | [4] -0.089 | [7] 0.009

NC(=O)c1ccc2nc(-c3ccc(Oc4ccc(Cl)cc4)cc3)[nH]c2c1
inactive: [1] -0.104 | [3] 0.066 | [4] -0.083 | [5] 0.041 | [7] 0

Additional structures.

C[C@@H](Oc1cc(-c2cnn(C3CCNCC3)c2)cnc1N)c1c(Cl)ccc(F)c1Cl [crizotinib]
inactive: [1] -0.181 | [2] 0.04 | [3] 0.01 | [4] -0.043 | [5] -0.214 | [6] -0.272

Cc1cc(SCc2sc(-c3ccc(C(F)(F)F)cc3)nc2C)ccc1OCC(=O)O
inactive: [1] 0.152 | [8] -0.119 | [3] 0.006 | [4] 0 | [7] -0.008

CN1CCC(CNc2ccc3ncc(-c4cccc(OC(F)(F)F)c4)n3n2)CC1
inactive: [1] 0.077 | [3] -0.034 | [4] -0.038 | [5] 0.116 | [7] -0.137

COc1cc(Nc2ncc3c(n2)-c2ccc(Cl)cc2C(c2c(F)cccc2OC)=NC3)ccc1C(=O)O [alisertib]
inactive: [1] 0.028 | [2] -0.045 | [3] -0.03 | [4] -0.091 | [5] -0.119 | [7] -0.159 | [6] -0.243

O=C(CCCCCCC(=O)Nc1ccccc1)NO [vorinostat]
inactive: [1] -0.022 | [3] -0.036 | [4] 0.05 | [5] -0.173 | [7] -0.102

Cc1cccc(-c2[nH]c(C(C)(C)C)nc2-c2ccc3nccnc3c2)n1
inactive: [1] -0.107 | [2] -0.005 | [3] -0.084 | [4] -0.01 | [5] -0.077 | [6] -0.007

O=C(O)c1ccc2c(c1)nc(Nc1cccc(Cl)c1)c1ccncc12 [silmitasertib]
inactive: [1] 0.105 | [2] 0.123 | [3] 0.05 | [4] 0.074 | [5] 0.125 | [7] 0.282 | [6] -0.116

CC(C)N(C[C@H]1O[C@@H](n2cnc3c(N)ncnc32)[C@H](O)[C@@H]1O)[C@H]1C[C@@H](CCc2nc3cc(C(C)(C)C)ccc3[nH]2)C1 [pinometostat]
inactive: [1] 0.267 | [2] -0.056 | [3] 0.01 | [4] -0.008 | [5] 0.167 | [6] 0.001

O=C(Nc1nc2ccccc2n1CCN1CCOCC1)c1cccc([N+](=O)[O-])c1 [IRAK-1-4 Inhibitor I]
inactive: [1] -0.346 | [2] -0.022 | [3] 0.037 | [4] -0.029 | [5] -0.116 | [6] -0.124

CC(C)c1cnn2c(NCc3ccccc3)cc(NCCCCCCN)nc12
inactive: [1] -0.3 | [3] 0.029 | [4] 0.249 | [5] 0.051 | [7] 0.102

O=C(Nc1cccc(Nc2ncc(Br)c(NCCc3cnc[nH]3)n2)c1)N1CCCC1
inactive: [1] 0.034 | [3] 0.002 | [4] -0.011 | [5] -0.058 | [7] -0.119

NC1(Cc2ccc(Cl)cc2)CCN(c2ncnc3[nH]ccc23)CC1
inactive: [1] -0.319 | [3] -0.041 | [4] 0.025 | [5] -0.035 | [7] 0.39

Cc1nc(Nc2ncc(C(=O)Nc3c(C)cccc3Cl)s2)cc(N2CCN(CCO)CC2)n1 [dasatinib]
inactive: [1] 0.019 | [8] -0.214 | [3] 0.006 | [4] 0.069 | [7] 0.015

CN1CCc2c(c3ccccc3n2Cc2ccc(C(=O)NO)cc2)C1 [Tubastatin A]
inactive: [1] 0.275 | [3] 0.054 | [4] -0.06 | [5] 0.051 | [7] -0.04

Cn1c2cc(S(C)=O)sc2c2cnn(Cc3cccc(N)c3)c(=O)c21 (stereo unspecified)
inactive: [1] 0.084 | [8] -0.039 | [3] -0.036 | [4] 0.121 | [7] 0.116

CNC(=O)c1ccccc1Nc1nc(Nc2ccc(N3CCOCC3)cc2OC)ncc1Cl
inactive: [1] 0.009 | [3] -0.001 | [4] 0.017 | [5] -0.052 | [7] -0.008

Cc1cc(Nc2cc(CN3CCOCC3)c3nc(C)c(Cc4ccc(Cl)cc4F)n3n2)n[nH]1 [gandotinib]
inactive: [1] 0.041 | [3] -0.023 | [4] 0.097 | [5] 0.12 | [7] 0.084

CCn1cc(-c2ccnc3[nH]c(-c4cccc(CN(C)C)c4)cc23)c(-c2ccc(NC(=O)N(C)C)cc2)n1
inactive: [1] 0.01 | [3] -0.026 | [4] -0.038 | [5] 0.079 | [7] 0.151

COc1ccc(Cn2ccc3ccc(C(=O)NO)cc32)cc1
inactive: [1] -0.073 | [2] 0.031 | [3] -0.027 | [4] -0.025 | [5] -0.22 | [6] 0.004
